Results from PubChem BioAssay AID2099 (Broad Institute, 2009).
Hit rate of the full screen: of about 330,000 compounds, about 230 (0.07%) were called active. This list was built around the results that the source calls inconclusive (neither active nor inactive); the mix of calls is not that of the screen.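 Rule for the calls: active = more than half of a compound's replicate wells show inhibition beyond 50%, single wells judged on their own value; inconclusive = some, but no more than half, of replicates pass 50% inhibition; inactive = no replicate passes 50% inhibition.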

Protein sequences, listed by entry. Tags and fused reporters are not part of them. Residues count along the entry.
UniProt Q9H3R0, 1-420 limits assumed: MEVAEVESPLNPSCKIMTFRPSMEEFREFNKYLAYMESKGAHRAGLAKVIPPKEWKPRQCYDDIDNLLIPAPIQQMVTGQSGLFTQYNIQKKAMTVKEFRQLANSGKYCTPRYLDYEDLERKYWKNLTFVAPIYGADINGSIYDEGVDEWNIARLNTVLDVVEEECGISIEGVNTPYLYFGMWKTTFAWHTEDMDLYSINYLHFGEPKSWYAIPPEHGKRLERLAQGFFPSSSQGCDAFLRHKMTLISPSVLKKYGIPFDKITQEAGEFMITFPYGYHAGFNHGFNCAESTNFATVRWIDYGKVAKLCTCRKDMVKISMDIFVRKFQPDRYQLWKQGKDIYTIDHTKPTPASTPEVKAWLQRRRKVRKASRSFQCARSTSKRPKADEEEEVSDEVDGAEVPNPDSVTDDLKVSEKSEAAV

biological target: Lysine-specific demethylase 4C (Homo sapiens) (UniProt Q9H3R0); test: JMJD2C H3K9me3 demethylation blockers – biochemical, fluorescence, DELFIA europium, primary screen (AID 2099); conditions: GST-JMJD2C(1-420) H3K9me3 demethylation, at 2.35 µM, active compounds read high;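 note: signal counts dimethyl H3K9 product captured on neutravidin plate; 0% = median of DMSO wells and 100% = 0.3 times that DMSO median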

| SMILES | inhibition |
| --- | --- |
| Cc1c(N=Cc2c(O)n(C)c(=O)[nH]c2=O)c(=O)n(-c2ccccc2)n1C | inconclusive: -52.9% |
| FC(F)(F)/C(=N\P(=S)(N1CCOCC1)N1CCOCC1)N1CCOCC1 | inconclusive: -36.1% |
| CN1C(=O)C(=Cc2cccnc2)C(=O)N(C)C1=O | inconclusive: -64.3% |
| O=C(NCc1ccc(C(=O)N2CCC3(CC2)OCCO3)cc1)c1cccc(Br)c1 | inactive: -0.705% |
| CCCCn1c(O)c(C(CC)=NCCN2CCCCC2)c(=O)[nH]c1=O | inconclusive: -70.9% |
| Cc1cccc(N2C(=O)NC(=O)/C(=C/c3ccc([N+](=O)[O-])o3)C2=O)c1 | active: 55.4% |
| CCC(=NCCOc1ccc(Cl)cc1)c1c(O)n(C)c(=O)n(C)c1=O | inactive: 4.7% |
| COCCO[C@H]1CCC2C3CC=C4C[C@@H](O)CC[C@]4(C)C3CC[C@@]21C (stereo not given in full) | inactive: -0.173% |
| CCN(CC)c1ccc(/C=C2\C(=O)NC(=O)N(Cc3ccco3)C2=O)cc1 | inconclusive: -92.1% |
| O=C(O)c1cccc(NC(=O)N2C[C@H]3C[C@@H](C2)c2cccc(=O)n2C3)c1 | inactive: 5.87% |
| O=C1NC(=O)C(=Cc2ccc(-c3cc(Cl)ccc3[N+](=O)[O-])o2)C(=O)N1 | inconclusive: -146% |
| Cc1ccc(-n2c(O)c(/C=N/Nc3ccccc3)c(=O)[nH]c2=O)cc1C | inactive: 2.8% |
| CN1C(=O)C(Cc2ccc(OCc3ccccc3)cc2)C(=O)N(C)C1=O | active: 50.5% |
| Clc1cccc(N2CCNCC2)c1 | inconclusive: -54.9% |
| Cc1ccc(C)c(NC(=O)CCNC(=O)N2C[C@H]3C[C@@H](C2)c2cccc(=O)n2C3)c1 | inconclusive: -292% |
| COC(=O)C1=C(c2cccc(OC)c2OC)C[C@@H]2CC[C@H]1N2C(=O)N1CCC(O)CC1 | inconclusive: -276% |
| CCOC(=O)C1=Nc2ccccc2/C1=C\c1c(O)n(C)c(=O)n(C)c1=O | inconclusive: -77.9% |
| COc1ccc2c(c1)CC1(CN2C)C(=O)NC(=O)N(CCc2ccccc2)C1=O (stereo not given) | inconclusive: -35% |
| Cc1[nH]n(-c2ccccc2)c(=O)c1C(c1ccc([N+](=O)[O-])cc1)c1c(C)[nH]n(-c2ccccc2)c1=O | inconclusive: -61.9% |
| CCC(=Nc1cccc(C(F)(F)F)c1)c1c(O)n(C)c(=O)n(C)c1=O | inconclusive: -106% |
| CC(C)COC(=O)c1ccccc1C(=O)OCC(C)C | inconclusive: -378% |
| CCN1CCN(c2ccc([N+](=O)[O-])cc2C=C2C(=O)NC(=O)NC2=O)CC1 | active: 56.8% |
| O=C1CC(c2ccccc2)CC(O)=C1C=NCCN1CCN(C(=O)Cc2ccccc2)CC1 (stereo not given) | inconclusive: -67.4% |
| Cc1ccc2nc3c(cc2c1)CC1(C(=O)N(C)C(=O)N(C)C1=O)C1CCCCN31 (stereo not given) | active: 55.5% |
| NP(=O)(OCCCCc1ccccc1)Oc1ccccc1Cl (stereo not given) | inconclusive: -141% |
| CCOC(=O)C1(CCc2ccccc2)CCN(Cc2csc(C(C)=O)c2)CC1 | inactive: 13.1% |
| CCN(CC)CCOC(=O)c1ccc(N=Cc2c(O)[nH]c(=O)[nH]c2=O)cc1 | inconclusive: -56.8% |

| SMILES | inhibition |
| --- | --- |
| C=C1C(=O)O[C@@H]2C[C@@H](C)[C@@H]3C4OC4C(=O)[C@@]3(C)[C@@H](O)[C@H]12 (stereo not given in full) | inactive: 4.43% |
| CC(C)n1c(=O)c(C=Nc2cccc([N+](=O)[O-])c2)c(O)n(CCc2ccccc2)c1=O | inconclusive: -103% |
| O=c1[nH]c(O)c(N=Nc2cc([N+](=O)[O-])ccc2O)c(=O)[nH]1 | inactive: -9.81% |
| CC[C@H](C)/C=C(C)/C=C/C1=CC2=C(Cl)C(=O)[C@@](C)(OC(C)=O)C(=O)C2=CO1 | inconclusive: -95.3% |
| COC(=O)C1=C(c2ccc(OC(F)(F)F)cc2)C[C@@H]2CC[C@H]1N2C(=O)NCCO | inactive: -4.19% |
| COc1c(/C=C2/C(=O)NC(=O)N(C)C2=O)c(CCN(C)C(=O)c2ccccc2)cc2c1OCO2 | inconclusive: -56% |
| CCCCn1c(O)c(C(CC)=NCc2ccc3c(c2)OCO3)c(=O)[nH]c1=O | inconclusive: -72.8% |
| COc1cc(Br)cc(CN2CCN(C)CC2)c1O | active: 58.9% |
| O=C1NC(=O)N(Cc2ccccc2)C(=O)/C1=C/C=C/c1ccco1 | active: 57.6% |
| CN1C(=O)C(=Cc2ccccc2OCc2ccc(C(=O)O)cc2)C(=O)N(C)C1=O | inconclusive: -108% |
| COC(=O)C1=C(N)Oc2c(c(=O)oc3ccccc23)C1c1cccnc1 (stereo not given) | inactive: -2.17% |
| COc1ccc(CNC(=O)CCC(=O)N2C[C@H]3C[C@H](C2)c2cccc(=O)n2C3)cc1 | inconclusive: -153% |
| O=C1NC(=O)C(Sc2ccccc2[N+](=O)[O-])C(=O)N1 | active: 68.7% |
| Cc1cccc(N2C(=O)NC(=O)/C(=C\c3cnn(-c4ccccc4)c3)C2=O)c1 | inconclusive: -98.7% |
| NP(=O)(OCCCc1ccccc1)Oc1ccc(Cl)cc1 (stereo not given) | inconclusive: -424% |
| COc1cc(/C=C2\C(=O)NC(=O)N(c3ccccc3)C2=O)c([N+](=O)[O-])cc1OC | inconclusive: -83.5% |
| CCn1c(O)c(/C=N/NC(=O)c2ccncc2)c(=O)[nH]c1=S | inactive: -34.8% |
| c1ccc2c3c(ccc2c1)OCC1CONC31 (stereo not given) | active: 82.3% |
| Cn1c(=O)c2c(nc(N/N=C/c3c(O)n(C4CCCCC4)c(=S)[nH]c3=O)n2C)n(C)c1=O | inconclusive: -100% |
| CCOCCCn1c(N)c(C(=O)Nc2sc3c(c2C(=O)OC)CCCC3)c2nc3ccccc3nc21 | inconclusive: -56.4% |
| O=C1NC(=S)NC(=O)C1=Cc1cccn1-c1ccc(O)cc1 | inconclusive: -79.3% |
| Cc1nc2c(=O)n(C)c(=O)nc-2n(C)n1 | active: 91.9% |
| CCOc1ccc(-n2c(O)c(C=NCCN3CCNCC3)c(=O)[nH]c2=O)cc1 | inactive: -0.159% |
| COC(=O)CC(NC(=S)N1CC2C[C@@H](C1)Cn1c2cccc1=O)C(=O)OC (stereo not given in full) | inactive: 5.75% |
| O=C1CN=C(c2ccc(Cl)cc2)c2oc3ccccc3c2N1 | inconclusive: -67.2% |
| O=C1NC(=O)C2(Cc3ccccc3N3CCCC32)C(=O)N1c1cccc(Cl)c1 (stereo not given) | inconclusive: -63.2% |
| Cc1ccc(NC2=NCCCS2)cc1Cl | inactive: 0.111% |

| SMILES | inhibition |
| --- | --- |
| CCOc1cccc(N2C(=O)CC(=O)NC2=O)c1 | inconclusive: -65.9% |
| CCC(COC(=O)c1cc(OC)c(OC)c(OC)c1)(c1ccccc1)N(C)C (stereo not given) | inconclusive: -51.4% |
| Cc1ccc2c(c1)=NC(=O)/C(=C/c1c(O)[nH]c(=O)[nH]c1=O)C=2 | inconclusive: -112% |
| COc1ccc(N=C(C)c2c(O)n(C3CCCCC3)c(=O)[nH]c2=O)c(OC)c1 | inconclusive: -90.3% |
| O=c1[nH]c(=O)n(C2CCCCC2)c(O)c1C=Nc1ccc(N2CCOCC2)cc1 | inconclusive: -72.8% |
| O=C(Nc1ccncc1)c1cccn(Cc2ccccc2)c1=O | inconclusive: -66% |
| Cc1[nH]c2ccccc2c1C1=CCNCC1 | inconclusive: -195% |
| Cn1ncnc2c(=O)n(C)c(=O)nc1-2 | active: 81% |
| Cc1ccc(-c2nc(N(C)C3CCN(C)CC3)c3ccccc3n2)cc1 | inconclusive: -77.5% |
| CNC(C(=O)c1ccccc1)C(OC(C)C)c1ccc(Cl)cc1 (stereo not given) | inconclusive: -78.8% |
| COCCCn1c(N)c(C(=O)NCc2ccco2)c2nc3ccccc3nc21 | inactive: 7.04% |
| COc1cc(CC2C(=O)N(C)C(=O)N(C)C2=O)ccc1OCc1ccccc1 | active: 52.5% |
| Cc1ccccc1N1C(=O)NC(=O)/C(=C\c2cc(C)n(C)c2C)C1=O | inconclusive: -66.2% |
| C=C1C2[C@H](OC(C)=O)[C@@H]3CC(=O)[C@]4(C)OC[C@@]3(C)[C@@]4(O)[C@@H](OC(C)=O)[C@H](OC(C)=O)[C@@]2(COC(=O)c2ccccc2)[C@@H](OC(C)=O)C[C@@H]1O (stereo not given in full) | inconclusive: -209% |
| O=C(O)CCn1cc(C=C2C(=O)NC(=S)NC2=O)c(-c2ccccc2)n1 | inactive: -1.8% |
| COc1ccc2c3c([nH]c2c1)C(C)=NCC3 | inconclusive: -29.8% |
| Cc1c(N=Nc2c(O)n(Cc3ccccc3)c(=O)[nH]c2=O)c(=O)n(-c2ccccc2)n1C | inactive: 14.5% |
| C[C@@H]1O[C@@H](O[C@H]2C[C@@H](O)[C@]3(CO)[C@H]4[C@H](O)C[C@]5(C)[C@@H](C6=CC(=O)OC6)CC[C@]5(O)[C@@H]4CC[C@]3(O)C2)[C@H](O)[C@H](O)[C@H]1O | inconclusive: -36.3% |
| O=C(/C=C/c1ccccc1)NC(=S)N1C[C@H]2C[C@H](C1)c1cccc(=O)n1C2 | inconclusive: -244% |
| CCC(C)N1C(=O)/C(=C/c2ccc3c(c2)CCN3CCCCl)C(=O)NC1=S (stereo not given) | inactive: 29.5% |
| COc1cc2[nH]c(C(=O)N3CCC4(CC3)OCCO4)cc2c(OC)c1OC | inconclusive: -91.9% |
| COc1ccc(OC)c(N2C(=O)NC(=O)C(CCc3ccncc3)(CCc3ccncc3)C2=O)c1 | inconclusive: -63% |
| O=C1NC(=O)C2(Cc3ccccc3N3CCCC32)C(=O)N1c1ccccc1 (stereo not given) | inconclusive: -59.5% |
| COc1ccccc1CNC(=O)CCC(=O)N1C[C@H]2C[C@@H](C1)c1cccc(=O)n1C2 | inconclusive: -102% |
| CN1C(=O)C(=Cc2ccc(OCCN(C)c3ccccn3)cc2)C(=O)N(C)C1=O | inconclusive: -111% |
| CCOC(=O)[C@@H]1[C@H]2COc3ccc(Br)cc3[C@@H]2N2C(=O)N(c3cccc(C)c3)C(=O)[C@]12C | inactive: -6.42% |

Reprinted from the entries so far (23 entries):

| SMILES | inhibition |
| --- | --- |
| COc1ccc(N=C(C)c2c(O)n(C3CCCCC3)c(=O)[nH]c2=O)c(OC)c1 | inconclusive: -90.3% |
| O=c1[nH]c(=O)n(C2CCCCC2)c(O)c1C=Nc1ccc(N2CCOCC2)cc1 | inconclusive: -72.8% |
| O=C(Nc1ccncc1)c1cccn(Cc2ccccc2)c1=O | inconclusive: -66% |
| Cc1[nH]c2ccccc2c1C1=CCNCC1 | inconclusive: -195% |
| Cn1ncnc2c(=O)n(C)c(=O)nc1-2 | active: 81% |
| Cc1ccc(-c2nc(N(C)C3CCN(C)CC3)c3ccccc3n2)cc1 | inconclusive: -77.5% |
| CNC(C(=O)c1ccccc1)C(OC(C)C)c1ccc(Cl)cc1 (stereo not given) | inconclusive: -78.8% |
| COCCCn1c(N)c(C(=O)NCc2ccco2)c2nc3ccccc3nc21 | inactive: 7.04% |
| COc1cc(CC2C(=O)N(C)C(=O)N(C)C2=O)ccc1OCc1ccccc1 | active: 52.5% |
| Cc1ccccc1N1C(=O)NC(=O)/C(=C\c2cc(C)n(C)c2C)C1=O | inconclusive: -66.2% |
| C=C1C2[C@H](OC(C)=O)[C@@H]3CC(=O)[C@]4(C)OC[C@@]3(C)[C@@]4(O)[C@@H](OC(C)=O)[C@H](OC(C)=O)[C@@]2(COC(=O)c2ccccc2)[C@@H](OC(C)=O)C[C@@H]1O (stereo not given in full) | inconclusive: -209% |
| O=C(O)CCn1cc(C=C2C(=O)NC(=S)NC2=O)c(-c2ccccc2)n1 | inactive: -1.8% |
| COc1ccc2c3c([nH]c2c1)C(C)=NCC3 | inconclusive: -29.8% |
| Cc1c(N=Nc2c(O)n(Cc3ccccc3)c(=O)[nH]c2=O)c(=O)n(-c2ccccc2)n1C | inactive: 14.5% |
| C[C@@H]1O[C@@H](O[C@H]2C[C@@H](O)[C@]3(CO)[C@H]4[C@H](O)C[C@]5(C)[C@@H](C6=CC(=O)OC6)CC[C@]5(O)[C@@H]4CC[C@]3(O)C2)[C@H](O)[C@H](O)[C@H]1O | inconclusive: -36.3% |
| O=C(/C=C/c1ccccc1)NC(=S)N1C[C@H]2C[C@H](C1)c1cccc(=O)n1C2 | inconclusive: -244% |
| CCC(C)N1C(=O)/C(=C/c2ccc3c(c2)CCN3CCCCl)C(=O)NC1=S (stereo not given) | inactive: 29.5% |
| COc1cc2[nH]c(C(=O)N3CCC4(CC3)OCCO4)cc2c(OC)c1OC | inconclusive: -91.9% |
| COc1ccc(OC)c(N2C(=O)NC(=O)C(CCc3ccncc3)(CCc3ccncc3)C2=O)c1 | inconclusive: -63% |
| O=C1NC(=O)C2(Cc3ccccc3N3CCCC32)C(=O)N1c1ccccc1 (stereo not given) | inconclusive: -59.5% |
| COc1ccccc1CNC(=O)CCC(=O)N1C[C@H]2C[C@@H](C1)c1cccc(=O)n1C2 | inconclusive: -102% |
| CN1C(=O)C(=Cc2ccc(OCCN(C)c3ccccn3)cc2)C(=O)N(C)C1=O | inconclusive: -111% |
| CCOC(=O)[C@@H]1[C@H]2COc3ccc(Br)cc3[C@@H]2N2C(=O)N(c3cccc(C)c3)C(=O)[C@]12C | inactive: -6.42% |
